Source: PubChem BioAssay AID504793 (Drosophila RNAi Screening Center, 2011)

Purpose: 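Genes required for cells to halt at G2/M after double-strand DNA breaks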 (primary screen)
System: Drosophila S2R+ cells
Reagent: long dsRNA against Drosophila genes, about 0.25 µg dsRNA per well
Timing: 4 days of dsRNA, then 4 hours of drug before read-out
Treatment: doxorubicin 0.5 µM for 4 hours to cause double-strand breaks, in cells also given a low, harmless dose of dsRNA against nbs to sensitise the assay
Measurement: 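Mitotic index as the number of phospho-histone H3-positive cells in each well following doxorubicin, given as raw counts without normalisation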
Scale: mitotic cells: higher = more cells in mitosis, weaker G2 arrest
Hit rule: 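Genes are called active only when high mitotic counts were reproduced with independent dsRNAs and mitosis was checked for delay without damage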
Meaning of the calls: active = confirmed in follow-up tests; inactive = not confirmed
In all, the deposit lists about 23,000 reagents; this is an unselected part of those with a known target gene and a result. Of all reagents, 62 (0.27%) got an active call. 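Calls come from follow-up tests whose scores are not deposited, so confirmed genes may have low counts here; counts are not normalised per plate.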 Raw values vary from plate to plate and are shown uncorrected. Names joined by + are all predicted targets of the reagent.

Gene,DRSC id,"mitotic cells, replicate 1","mitotic cells, replicate 2",outcome
nerfin-2,DRSC14547,5,,inactive
nerfin-2,DRSC28542,7,,inactive
GstE14,DRSC06881,7,,inactive
GstE14,DRSC26779,5,,inactive
Tektin-A,DRSC01921,5,,inactive
CG32102,DRSC22015,11,,inactive
CG13544,DRSC04186,4,,inactive
CG13544,DRSC30038,8,,inactive
Ufsp2,DRSC10231,6,,inactive
TwdlC,DRSC14749,10,,inactive
TwdlC,DRSC25255,5,,inactive
PGRP-SB2,DRSC11092,,,inactive
Atf3,DRSC22996,8,,inactive
SdhD,DRSC14215,11,,inactive
CPT2,DRSC08553,7,,inactive
CAH9,DRSC15963,9,,inactive
CAH9,DRSC29677,13,,inactive
Cpes,DRSC04475,8,,inactive
Cpes,DRSC27503,3,,inactive
Clk,DRSC11117,4,,inactive
CG18179,DRSC10303,4,,inactive
CG18179,DRSC25528,1,,inactive
Lsm11,DRSC06238,6,,inactive
e(r),DRSC18768,6,,inactive
ACXC,DRSC00846,5,,inactive
CG11357,DRSC08183,3,,inactive
Vps24,DRSC12332,7,8,inactive
Vps24,DRSC29224,6,,inactive
Zn72D,DRSC11318,4,,inactive
eyg,DRSC23136,15,,inactive
eyg,DRSC26636,7,,inactive
CG17666,DRSC10276,1,,inactive
CG17666,DRSC26761,7,,inactive
pths,DRSC03171,6,,inactive
CG13667,DRSC10028,9,,inactive
CG8248,DRSC07124,2,,inactive
Neu2,DRSC11819,7,,inactive
Neu2,DRSC26795,5,,inactive
tey,DRSC11042,12,,inactive
tey,DRSC21709,5,,inactive
tey,DRSC26114,6,,inactive
Nmdmc,DRSC16760,3,,inactive
Nmdmc,DRSC26212,6,,inactive
CG32280,DRSC08024,12,,inactive
Rilpl,DRSC18494,6,,inactive
CG14762,DRSC05073,8,,inactive
CG14762,DRSC06496,8,,inactive
Vha68-2,DRSC02721,4,,inactive
Vha68-2,DRSC28637,7,,inactive
repo,DRSC23108,6,,inactive
repo,DRSC26970,6,,inactive
sls,DRSC08528,4,,inactive
sls,DRSC08540,3,,inactive
sls,DRSC08670,6,,inactive
TfIIB,DRSC03454,22,,inactive
CG14483,DRSC06455,8,,inactive
CG12535,DRSC17838,10,,inactive
Txl,DRSC11310,4,,inactive
CG15020,DRSC08474,5,,inactive
Alp7,DRSC04355,9,,inactive
Alp7,DRSC27071,4,,inactive
IA-2,DRSC00304,8,7,inactive
IA-2,DRSC00652,2,,inactive
IA-2,DRSC23335,8,,inactive
IA-2,DRSC24588,5,,inactive
Fas1,DRSC16669,6,,inactive
CG4730,DRSC15633,6,,inactive
CG4730,DRSC24561,10,,inactive
Sym,DRSC12301,11,,inactive
Sym,DRSC29255,4,,inactive
Adgf-D,DRSC16521,5,,inactive
ph-p,DRSC18820,9,,inactive
js,DRSC15004,6,,inactive
CG14355,DRSC14818,8,,inactive
CG13716,DRSC08325,14,,inactive
CG13716,DRSC22815,9,,inactive
CG9458,DRSC16495,1,,inactive
CG6765,DRSC10706,4,,inactive
CG6765,DRSC24612,5,,inactive
Tsp68C,DRSC09295,8,,inactive
Tsp68C,DRSC28942,3,,inactive
CG40439,DRSC22707,11,,inactive
CG40439,DRSC26673,6,,inactive
CG30496,DRSC06805,5,,inactive
CG33521,DRSC17211,7,,inactive
CG33521,DRSC22919,9,,inactive
CG33521,DRSC29186,4,,inactive
MKP-4,DRSC19567,4,,inactive
MKP-4,DRSC27673,4,,inactive
CG1074,DRSC12143,19,,inactive
CG1074,DRSC29045,3,,inactive
DnaJ-1,DRSC11145,3,,inactive
CG8851,DRSC00718,3,,inactive
CG8851,DRSC29343,3,,inactive
CG17906 + alien,DRSC24008,9,,inactive
CG14641,DRSC12227,5,,inactive
CG14641,DRSC26839,2,,inactive
Top3alpha,DRSC03460,7,,inactive
Su(var)2-10,DRSC07721,18,,active
Su(var)2-10,DRSC28335,7,,inactive
CG14301,DRSC14780,17,,inactive
Ptpmeg,DRSC08684,3,,inactive
Ptpmeg,DRSC26348,8,,inactive
CG14367,DRSC14829,4,,inactive
CG46298,DRSC06222,3,,inactive
CG46298,DRSC23884,5,,inactive
subdued,DRSC15137,7,,inactive
Tsen54,DRSC10527,2,,inactive
Tsen54,DRSC27583,8,,inactive
CG5770,DRSC06954,3,,inactive
CG5770,DRSC24281,4,,inactive
ND-PDSW,DRSC00715,5,,inactive
Acp76A,DRSC09665,12,,inactive
Acp76A,DRSC24824,9,,inactive
stac,DRSC13693,2,,inactive
stac,DRSC14392,6,,inactive
stac,DRSC22197,7,,inactive
Lst8,DRSC18262,6,,inactive
Mgat1,DRSC07463,10,,inactive
Rip11,DRSC20000,2,,inactive
Rip11,DRSC29902,7,,inactive
Nf-YC,DRSC23106,8,,inactive
CG5541,DRSC19946,5,,inactive
CR31427,DRSC22675,8,,inactive
CR31427,DRSC26472,11,,inactive
CG4658,DRSC02768,4,,inactive
lncRNA:roX2,DRSC22237,7,,inactive
lncRNA:roX2,DRSC27049,5,,inactive
CG15617,DRSC06570,6,,inactive
CG15617,DRSC27918,9,,inactive
CG16727,DRSC15139,5,,inactive
CG16727,DRSC26820,7,,inactive
pdgy,DRSC19064,5,,inactive
pdgy,DRSC19341,8,,inactive
CG6325,DRSC16020,9,,inactive
Ugt303B3,DRSC14199,18,,inactive
Ugt303B3,DRSC26386,5,,inactive
CG14676,DRSC12262,1,,inactive
CG14903,DRSC15024,3,,inactive
ATPsynF,DRSC04482,8,,inactive

Reformatted: results already given
| Gene | DRSC id | mitotic cells, replicate 1 | mitotic cells, replicate 2 | outcome |
| --- | --- | --- | --- | --- |
| CG14367 | DRSC14829 | 4 | – | inactive |
| CG46298 | DRSC06222 | 3 | – | inactive |
| CG46298 | DRSC23884 | 5 | – | inactive |
| subdued | DRSC15137 | 7 | – | inactive |
| Tsen54 | DRSC10527 | 2 | – | inactive |
| Tsen54 | DRSC27583 | 8 | – | inactive |
| CG5770 | DRSC06954 | 3 | – | inactive |
| CG5770 | DRSC24281 | 4 | – | inactive |
| ND-PDSW | DRSC00715 | 5 | – | inactive |
| Acp76A | DRSC09665 | 12 | – | inactive |
| Acp76A | DRSC24824 | 9 | – | inactive |
| stac | DRSC13693 | 2 | – | inactive |
| stac | DRSC14392 | 6 | – | inactive |
